The values below come from patent publication US7198651B2, “Method of effecting a reversible color change of dyed hair” (Kao Corporation, priority 2003, dated 2007).

A short description of the data set: Example II: dyeing of white goat hair, then colour change with acidic gel (pH 3) and alkaline cream. Particulars: for Delta E Colour Change: vs. original dyed colour. As to the method:
The dye mixture can be applied to undamaged white goat hair at 50° C. for 15 min. or 30° C. for 30 min. Approximately 1 g of formulation A is used per gram of hair. After the completion of the dyeing time, the tresses may be rinsed with water, shampoo washed and then dried. The colour of the tresses can then be recorded. […] All of the dyes have the formula I, but only dyes within a certain pKa range are capable of reversible colour change of hair in which the hair changes to a second colour by treatment with the acidic formulation defined in Table 2. The dyeing solutions each had the following compositions: [table] The dye solution is applied in a 1:1 weight ratio to untreated white goat hair at 30° C. for 20 min. After this time, the tresses are shampoo rinsed, dried and the colour measured. The tresses were then run through the following protocol: • a. Acidic Gel (see Table 2a below) was applied in a ratio of 1 g per 1 g of hair tress for 1 min. • b. The hair tress was rinsed with water and dried, and the colour and delta E vs. the original dyed colour was then measured. • c. An alkaline cream (see Table 2b below) was applied in a ratio of 1 g per 1 g of the hair tress for 1 min. • d. The hair tress was rinsed and dried, and the colour and delta E vs. the original dyed colour was then measured. [table] [table]

Setting [1] is: Acid Solution (acidic gel pH 3, 1 min).
Where [2] appears, read: Alkali Solution (alkaline cream, 1 min) after acid.
The mark [3] stands for this setting: Dyed, 0.2% dye, pH 10, 30° C. 20 min.

Values joined by “and” are separate entries in the source; they are usually repeats but may differ in a detail not shown here. Equal entries are not always repeated.

`N#CC(/N=N/c1ccc(S(N)(=O)=O)cc1)C(=O)c1ccccc1` (stereo not shown) [Dye 23]: under setting [1], the L worked out at 81, the a was −8, the b stood at 41 and the “Delta E Colour Change” value turned out to be 12. For the same compound, under setting [2], the L turned out to be 81, the a was −10, the b was found to be 53 and the “Delta E Colour Change” value is recorded as 1. In addition, under setting [3], the L is 80, the a is −10 and the b is listed as 53.

On to `Cc1nn2nc(C(C)(C)C)c(/N=N/c3cc(Cl)c(S(N)(=O)=O)cc3Cl)c2[nH]1` [Dye 24], for which, under setting [1], the L is given as 81, the a is given as −2, the b stood at 64 and the “Delta E Colour Change” value stood at 12. Under setting [2], the L is listed as 78, the a was determined as 8, the b was 67 and the “Delta E Colour Change” value is reported as 2. Under setting [3], this compound showed an L of 77, an a of 9 and a b of 68.

As to `CCSc1nsc(/N=N/c2cc(Cl)c(O)c(NC(=O)CC)c2)n1` [Dye 25, reference compound], under setting [1], the L was found to be 41, the a came to 52, the b is reported as −16 and the “Delta E Colour Change” value was 1. Moreover, under setting [2], the L stood at 41, the a was 51, the b is listed as −17 and the “Delta E Colour Change” value was found to be 1. Under setting [3], this compound returned an L of 40, an a of 51 and a b of −17.

In the case of `CCSc1nsc(/N=N/c2cc(Cl)c(O)cc2Cl)n1` [Dye 26, reference compound], under setting [1], the L turned out to be 27, the a worked out at 51, the b is recorded as 12 and the “Delta E Colour Change” value came out at 1. Further, under setting [2], the L is given as 28, the a is on record as 50, the b was determined as 11 and the “Delta E Colour Change” value turned out to be 1. Under setting [3], this compound returned an L of 27, an a of 50 and a b of 11.

Consider `CC(=O)Nc1cc(/N=N/c2snc3ccc(S(N)(=O)=O)cc23)c(Cl)c(Cl)c1O` [Dye 27, reference compound], for which, under setting [1], the L was 32, the a was found to be 8, the b is −29 and the “Delta E Colour Change” value came to 3. In addition, under setting [2], the L was determined as 34, the a stood at 10, the b is listed as −31 and the “Delta E Colour Change” value came to 2. For the same compound, under setting [3], the L amounted to 32, the a is listed as 10 and the b is on record as −31.

Regarding `CCC(=O)Nc1cc(/N=N/c2nccs2)cc(Cl)c1O` [Dye 28, reference compound], under setting [1], the L stood at 27, the a is 43, the b is given as 13 and the “Delta E Colour Change” value was found to be 1. Further, under setting [2], the L is recorded as 29, the a came to 43, the b was 13 and the “Delta E Colour Change” value is reported as 1. For the same compound, under setting [3], the L worked out at 28, the a was 43 and the b came to 13.

Turning to `CCC(=O)Nc1cc(/N=N/c2nc(C)ns2)cc(Cl)c1O` [Dye 29, reference compound], under setting [1], the L is reported as 26, the a turned out to be 52, the b is −3 and the “Delta E Colour Change” value is on record as 2. In addition, under setting [2], the L is 26, the a is listed as 51, the b was −3 and the “Delta E Colour Change” value came to 1. Under setting [3], the L stood at 26, the a is recorded as 50 and the b is −2.

Consider `Cc1nsc(/N=N/c2cc(Cl)c(O)cc2Cl)n1` [Dye 30, reference compound], for which, under setting [1], the L is listed as 32, the a was found to be 55, the b was found to be 22 and the “Delta E Colour Change” value came out at 2. Further, under setting [2], the L came out at 34, the a is reported as 56, the b amounted to 21 and the “Delta E Colour Change” value was 1. Besides, under setting [3], the L amounted to 33, the a is listed as 57 and the b is on record as 21.

Turning to `Cc1nsc(/N=N/c2ccc(O)c(Cl)c2)n1` [Dye 31, reference compound], under setting [1], the L was determined as 36, the a is 53, the b came out at 24 and the “Delta E Colour Change” value is 2. Under setting [2], the L amounted to 37, the a came to 53, the b is 23 and the “Delta E Colour Change” value is given as 1. Under setting [3], this compound had an L of 36, an a of 54 and a b of 22.

Turning to `CC(=O)Nc1cc(N=Nc2nc(C)ns2)ccc1O` [Dye 32, reference compound], under setting [1], the L is listed as 36, the a was 62, the b is reported as −1 and the “Delta E Colour Change” value was found to be 1. Besides, under setting [2], the L is on record as 37, the a came out at 62, the b is listed as −2 and the “Delta E Colour Change” value is recorded as 1. Under setting [3], the L was 36, the a worked out at 62 and the b is recorded as −2.

With `N#CC1=NN(c2ccccc2)C(=O)C1/N=N/c1cc(Cl)c(S(N)(=O)=O)cc1Cl` (stereo not shown) [Dye 34, reference compound], under setting [1], the L is 80 and 74; the b is 54 and 68; the “Delta E Colour Change” value amounted to 2. Also, under setting [2], the L is 78 and 75; the b is 56 and 69; the “Delta E Colour Change” value stood at 1. Besides, under setting [3], the L is 79 and 75; the b was 56 and 69.

On to `CCSc1nnc(/N=N/c2c(C(C)(C)C)nn3nc(C(C)C)[nH]c23)s1` [Dye 35, reference compound], for which, under setting [1], the L turned out to be 78, the a was found to be 11, the b was determined as 73 and the “Delta E Colour Change” value is on record as 3. For the same compound, under setting [2], the L stood at 76, the a turned out to be 12, the b was determined as 74 and the “Delta E Colour Change” value is 2. For the same compound, under setting [3], the L worked out at 77, the a is reported as 13 and the b was found to be 75.

With `CCc1nn2c(-c3ccc(OC)c(NS(C)(=O)=O)c3)n[nH]c2c1/N=N/c1nc(C(C)C)no1` [Dye 36, reference compound], under setting [1], the L is reported as 85, the a is −6, the b amounted to 57 and the “Delta E Colour Change” value was determined as 1. Besides, under setting [2], the L is 84, the a was −4, the b stood at 56 and the “Delta E Colour Change” value is 2. Further, under setting [3], the L was 85, the a is given as −5 and the b was determined as 57.

Regarding `CNS(=O)(=O)c1ccc2nsc(/N=N/c3cc(NC(C)=O)c(O)c(NC(C)=O)c3)c2c1` [Dye 39, reference compound], under setting [1], the L was 56, the a was −5, the b was −16 and the “Delta E Colour Change” value was found to be 3. Further, under setting [2], the L was 58, the a was −5, the b is listed as −15 and the “Delta E Colour Change” value is 4. In addition, under setting [3], the L amounted to 55, the a is on record as −5 and the b was −17.
